Patent publication US10786429B2, “Preservative removal from eye drops” (University of Florida Research Foundation, Inc., priority 2016, dated 2020)
Where a name gives a salt, the structure may show the parent alone.

Legend:
Format in all cases: physicochemical
[1] = BAK/drug removal by macroporous pHEMA gel plug packed in syringe, 10 consecutive passes; conditions: for drug adsorption percentage: first pass through the 10th pass; for percentage of BAK or drug absorbed by plug: 2.5 mL drug/BAK in PBS, 5 mm gel
[2] = BAK/drug removal by crushed macroporous pHEMA particles in syringe, passes separated by 24 hours
[3] = Timolol/BAK separation by pHEMA particles with SR9035 cross-linker in prototype bottle
[4] = Timolol/BAK separation by pHEMA particles from UV-initiated polymerization (EGDMA) in prototype bottle
[5] = Timolol/BAK separation by pHEMA particles with SR454HP cross-linker in prototype bottle

With `CCN[C@H]1C[C@H](C)S(=O)(=O)c2sc(S(N)(=O)=O)cc21` [Dorzolamide, dorzolamide hydrochloride] the drug adsorption percentage [1] was “about 5%”.
For `CC(C)OC(=O)CCC/C=C\C[C@@H]1[C@@H](CC[C@@H](O)CCc2ccccc2)[C@H](O)C[C@@H]1O` [Latanoprost, latanoprost], the “drug absorbed (in words)” value ([2]; particles pre-equilibrated with the drug solution) was “only a very small portion”, the “percentage of BAK or drug absorbed by plug” value (from here on “percentage … by plug”) ([1]; 10th pass) was 30% and the “percentage … by plug” value ([1]; first run) was 90%.
For `CC(C)(C)NC[C@H](O)COc1nsnc1N1CCOCC1` [Timolol, timolol maleate], the percentage removed ([3]; 1st run) was “About 25%”, the “amount removed (in words)” value ([3]; after the 5th run) was “negligible” and the percentage removed ([4]; each of the 5 runs) was “about 1.5%”. For the same molecule, the percentage removed ([5]; 1st run) was “About 18%”, the “amount removed (in words)” value ([5]; 10th run) was “negligible” and the drug adsorption percentage [1] was “about 5%”.
For Benzalkonium Chloride [BAK], the percentage removed ([3]; 10th run) was “about 95%”, the percentage removed ([3]; first 6th runs, 1.5 mL daily, 1.8 cm plug) was ~100% and the “percentage of BAK removed” value ([2]; all 10 passes, 24 hours between passes, regardless of drug) was ~100%. The percentage removed ([4]; 5th run) was 30%, the percentage removed ([4]; first pass, 1.5 mL, 8 mm plug) was “Roughly 50%” and the percentage removed ([5]; after the 5th run) was “about 90%”. For the same molecule, the percentage removed ([5]; first 3-5th runs, 1.5 mL daily, 1.8 cm plug) was ~100%, the “percentage … by plug” value ([1]; 10th pass) was 70-80% and the “percentage … by plug” value ([1]; first run) was 100%.
